Structures can show the parent of a compound that is named as a salt. Some of the results follow. Hit calls seldom repeat between salt and free forms of one compound.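 In K562 cells expressing nanoluciferase-fused kinases, luminescence was recorded at 4 h intervals between 2 and 18 h, normalized as percent of control with DMSO at 100% and a positive control at 0%. A significant (2 sigma) signal drop marks a time point as decreased. The authors' rule for a hit is not shown and takes in more than the number of time points.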
Key:
Experiment in all cases: number of time points (of 5) at which kinase-Nluc abundance scored as decreased, DMSO-normalised (count); higher = more persistent destabilization
Conditions in all cases: K562; 2-18 h
LMTK2 = LMTK2 (UniProt Q8IWU2)
LYN = LYN (UniProt P07948)
MAP2K1 = MAP2K1 (UniProt Q02750)
MAP2K2 = MAP2K2 (UniProt P36507)
MAP4K2 = MAP4K2 (UniProt Q12851)
MAPK1 = MAPK1 (UniProt P28482)
MAPK4 = MAPK4 (UniProt P31152)
MAPKAPK2 = MAPKAPK2 (UniProt P49137)
MKNK1 = MKNK1 (UniProt Q9BUB5)
NTRK2 = NTRK2 (UniProt Q16620)

Chains of the proteins cited; added tags and fusions are not shown. Lines headed by an entry give the natural chain unless they say otherwise; changes in a name come on top.
UniProt Q8IWU2: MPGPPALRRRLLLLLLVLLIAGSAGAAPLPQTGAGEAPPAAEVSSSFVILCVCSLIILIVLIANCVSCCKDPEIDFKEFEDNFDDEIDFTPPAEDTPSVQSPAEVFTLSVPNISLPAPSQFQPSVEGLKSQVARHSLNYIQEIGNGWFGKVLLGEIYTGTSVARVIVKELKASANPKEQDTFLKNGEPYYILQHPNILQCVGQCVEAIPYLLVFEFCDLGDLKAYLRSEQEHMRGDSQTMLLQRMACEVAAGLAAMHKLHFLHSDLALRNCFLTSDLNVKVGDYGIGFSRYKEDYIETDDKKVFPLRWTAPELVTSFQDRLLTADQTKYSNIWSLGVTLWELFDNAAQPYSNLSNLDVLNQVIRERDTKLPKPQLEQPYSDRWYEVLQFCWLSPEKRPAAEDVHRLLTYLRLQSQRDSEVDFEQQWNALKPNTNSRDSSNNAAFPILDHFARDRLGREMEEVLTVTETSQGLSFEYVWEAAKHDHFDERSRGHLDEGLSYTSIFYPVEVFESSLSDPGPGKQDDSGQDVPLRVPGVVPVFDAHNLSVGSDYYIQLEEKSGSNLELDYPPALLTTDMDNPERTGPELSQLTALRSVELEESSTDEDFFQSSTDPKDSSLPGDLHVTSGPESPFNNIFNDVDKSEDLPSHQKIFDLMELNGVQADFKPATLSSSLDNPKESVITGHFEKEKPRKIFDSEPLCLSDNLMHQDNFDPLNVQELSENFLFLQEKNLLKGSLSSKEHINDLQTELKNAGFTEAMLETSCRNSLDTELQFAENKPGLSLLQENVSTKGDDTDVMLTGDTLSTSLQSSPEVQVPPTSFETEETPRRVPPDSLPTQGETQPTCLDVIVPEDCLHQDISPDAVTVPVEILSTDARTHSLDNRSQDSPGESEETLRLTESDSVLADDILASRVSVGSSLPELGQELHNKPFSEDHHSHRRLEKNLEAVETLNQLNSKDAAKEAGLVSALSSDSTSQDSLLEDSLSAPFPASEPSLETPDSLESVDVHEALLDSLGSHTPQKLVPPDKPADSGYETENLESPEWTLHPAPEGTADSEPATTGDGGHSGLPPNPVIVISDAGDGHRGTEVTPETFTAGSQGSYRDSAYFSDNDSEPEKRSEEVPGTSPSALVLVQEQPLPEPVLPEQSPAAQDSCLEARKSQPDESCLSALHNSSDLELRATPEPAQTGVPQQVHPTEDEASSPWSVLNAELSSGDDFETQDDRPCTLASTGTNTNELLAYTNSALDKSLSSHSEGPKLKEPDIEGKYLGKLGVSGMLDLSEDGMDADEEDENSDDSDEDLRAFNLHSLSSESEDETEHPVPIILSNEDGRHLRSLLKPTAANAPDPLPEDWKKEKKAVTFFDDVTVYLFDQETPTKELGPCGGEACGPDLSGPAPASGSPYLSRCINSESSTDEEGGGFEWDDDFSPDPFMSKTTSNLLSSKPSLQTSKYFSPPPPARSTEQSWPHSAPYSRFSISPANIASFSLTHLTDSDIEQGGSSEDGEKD
UniProt P07948: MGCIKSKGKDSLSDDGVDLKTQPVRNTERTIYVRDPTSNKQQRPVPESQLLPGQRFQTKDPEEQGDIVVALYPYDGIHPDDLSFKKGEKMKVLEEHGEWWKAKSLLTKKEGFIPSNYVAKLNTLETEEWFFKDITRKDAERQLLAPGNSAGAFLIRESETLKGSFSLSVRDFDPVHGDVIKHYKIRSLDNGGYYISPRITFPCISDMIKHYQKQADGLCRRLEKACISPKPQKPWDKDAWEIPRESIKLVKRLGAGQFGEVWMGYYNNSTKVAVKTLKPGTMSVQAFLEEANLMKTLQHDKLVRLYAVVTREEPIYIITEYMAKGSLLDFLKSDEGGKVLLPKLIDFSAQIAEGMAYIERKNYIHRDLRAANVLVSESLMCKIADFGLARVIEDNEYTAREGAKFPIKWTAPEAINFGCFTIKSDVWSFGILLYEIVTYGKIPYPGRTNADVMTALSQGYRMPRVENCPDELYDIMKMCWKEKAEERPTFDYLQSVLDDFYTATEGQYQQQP
UniProt Q12851: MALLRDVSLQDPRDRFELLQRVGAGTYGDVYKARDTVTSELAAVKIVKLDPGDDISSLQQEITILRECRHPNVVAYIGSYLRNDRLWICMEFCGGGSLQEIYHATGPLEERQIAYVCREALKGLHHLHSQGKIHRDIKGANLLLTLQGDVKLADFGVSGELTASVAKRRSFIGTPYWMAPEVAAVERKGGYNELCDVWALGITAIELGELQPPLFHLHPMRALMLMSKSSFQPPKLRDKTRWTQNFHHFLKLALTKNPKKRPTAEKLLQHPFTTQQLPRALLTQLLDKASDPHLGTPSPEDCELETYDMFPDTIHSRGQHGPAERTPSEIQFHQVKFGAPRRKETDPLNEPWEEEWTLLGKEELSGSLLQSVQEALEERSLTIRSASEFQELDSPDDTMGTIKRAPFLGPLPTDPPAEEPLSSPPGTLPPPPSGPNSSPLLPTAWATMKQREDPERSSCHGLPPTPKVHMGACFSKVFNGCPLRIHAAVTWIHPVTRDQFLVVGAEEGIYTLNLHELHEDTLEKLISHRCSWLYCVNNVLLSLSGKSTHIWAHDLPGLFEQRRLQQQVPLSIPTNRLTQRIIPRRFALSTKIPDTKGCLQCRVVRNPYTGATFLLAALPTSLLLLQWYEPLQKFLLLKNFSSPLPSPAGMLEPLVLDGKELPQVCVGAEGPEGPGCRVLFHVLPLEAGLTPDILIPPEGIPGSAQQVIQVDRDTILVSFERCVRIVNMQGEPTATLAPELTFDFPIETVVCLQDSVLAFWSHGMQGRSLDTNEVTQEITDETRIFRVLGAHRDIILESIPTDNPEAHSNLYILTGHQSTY
UniProt P28482, whole entry: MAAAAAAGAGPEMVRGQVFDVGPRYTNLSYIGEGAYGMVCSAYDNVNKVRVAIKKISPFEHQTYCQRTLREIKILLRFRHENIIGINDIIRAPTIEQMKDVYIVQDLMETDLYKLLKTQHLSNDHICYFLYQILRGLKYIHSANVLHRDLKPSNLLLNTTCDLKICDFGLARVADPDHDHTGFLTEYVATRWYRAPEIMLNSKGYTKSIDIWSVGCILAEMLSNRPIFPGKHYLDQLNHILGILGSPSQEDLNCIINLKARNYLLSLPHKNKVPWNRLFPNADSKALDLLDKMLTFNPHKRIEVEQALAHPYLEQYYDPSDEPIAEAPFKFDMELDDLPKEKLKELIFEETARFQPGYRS
UniProt P31152, whole entry: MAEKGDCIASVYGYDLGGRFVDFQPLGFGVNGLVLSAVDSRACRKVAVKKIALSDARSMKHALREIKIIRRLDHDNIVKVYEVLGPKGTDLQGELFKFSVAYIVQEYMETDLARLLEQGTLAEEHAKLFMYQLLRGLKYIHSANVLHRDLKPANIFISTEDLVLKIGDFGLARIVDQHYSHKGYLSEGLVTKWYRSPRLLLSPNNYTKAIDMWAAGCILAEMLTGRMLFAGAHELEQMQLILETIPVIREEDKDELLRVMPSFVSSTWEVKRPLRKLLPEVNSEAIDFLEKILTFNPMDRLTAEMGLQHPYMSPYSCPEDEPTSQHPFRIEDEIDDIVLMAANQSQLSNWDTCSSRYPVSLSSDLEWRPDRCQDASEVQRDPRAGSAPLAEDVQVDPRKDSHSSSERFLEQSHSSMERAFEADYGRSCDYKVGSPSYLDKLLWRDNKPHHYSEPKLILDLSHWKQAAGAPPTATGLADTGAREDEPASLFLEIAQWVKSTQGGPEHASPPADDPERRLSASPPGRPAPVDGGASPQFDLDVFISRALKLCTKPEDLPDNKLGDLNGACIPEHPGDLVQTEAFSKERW
UniProt P49137, whole entry, looked up: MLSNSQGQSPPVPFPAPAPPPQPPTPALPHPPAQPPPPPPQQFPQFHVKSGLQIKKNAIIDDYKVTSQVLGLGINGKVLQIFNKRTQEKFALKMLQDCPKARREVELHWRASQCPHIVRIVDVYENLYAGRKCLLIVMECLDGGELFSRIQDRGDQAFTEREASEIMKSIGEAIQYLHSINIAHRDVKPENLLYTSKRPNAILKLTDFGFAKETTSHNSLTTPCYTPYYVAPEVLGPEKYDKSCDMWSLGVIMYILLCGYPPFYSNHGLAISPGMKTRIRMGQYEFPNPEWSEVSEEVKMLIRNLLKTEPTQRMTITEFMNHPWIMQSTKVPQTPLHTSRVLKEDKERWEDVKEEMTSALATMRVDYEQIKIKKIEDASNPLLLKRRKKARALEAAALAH
UniProt Q9BUB5: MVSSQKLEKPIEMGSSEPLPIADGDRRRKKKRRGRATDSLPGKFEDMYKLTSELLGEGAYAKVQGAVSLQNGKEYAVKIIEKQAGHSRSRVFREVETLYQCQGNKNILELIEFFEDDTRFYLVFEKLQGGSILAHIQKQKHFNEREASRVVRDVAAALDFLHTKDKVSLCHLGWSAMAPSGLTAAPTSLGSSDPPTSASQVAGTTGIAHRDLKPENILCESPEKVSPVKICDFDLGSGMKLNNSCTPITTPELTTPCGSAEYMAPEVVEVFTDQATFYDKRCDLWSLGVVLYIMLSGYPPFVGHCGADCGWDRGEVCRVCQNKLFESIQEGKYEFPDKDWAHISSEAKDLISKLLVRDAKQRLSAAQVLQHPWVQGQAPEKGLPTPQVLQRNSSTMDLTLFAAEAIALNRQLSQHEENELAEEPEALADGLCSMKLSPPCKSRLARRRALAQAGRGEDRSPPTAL
UniProt Q16620, whole entry, looked up: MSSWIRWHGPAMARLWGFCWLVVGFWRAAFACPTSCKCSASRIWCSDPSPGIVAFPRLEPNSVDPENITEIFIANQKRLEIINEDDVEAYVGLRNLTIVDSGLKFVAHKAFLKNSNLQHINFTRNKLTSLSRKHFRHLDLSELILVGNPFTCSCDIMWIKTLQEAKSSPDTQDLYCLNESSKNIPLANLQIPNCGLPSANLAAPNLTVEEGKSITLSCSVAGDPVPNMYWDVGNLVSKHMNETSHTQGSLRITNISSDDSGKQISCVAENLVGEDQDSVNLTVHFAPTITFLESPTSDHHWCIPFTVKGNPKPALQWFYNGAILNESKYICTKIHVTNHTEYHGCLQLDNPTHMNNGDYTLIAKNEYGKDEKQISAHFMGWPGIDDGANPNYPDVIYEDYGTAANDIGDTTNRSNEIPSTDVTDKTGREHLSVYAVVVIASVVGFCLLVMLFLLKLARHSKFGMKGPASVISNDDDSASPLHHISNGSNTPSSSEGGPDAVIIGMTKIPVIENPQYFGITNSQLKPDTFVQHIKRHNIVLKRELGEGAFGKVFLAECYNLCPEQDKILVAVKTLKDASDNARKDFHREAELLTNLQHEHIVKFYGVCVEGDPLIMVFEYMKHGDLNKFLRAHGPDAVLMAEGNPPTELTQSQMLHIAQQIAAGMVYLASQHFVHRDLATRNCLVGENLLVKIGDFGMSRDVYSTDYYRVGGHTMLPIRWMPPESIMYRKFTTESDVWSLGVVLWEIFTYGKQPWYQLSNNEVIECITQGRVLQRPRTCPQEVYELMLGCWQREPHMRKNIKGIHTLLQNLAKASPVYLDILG

| Compound | number of time points (LMTK2) | number of time points (LYN) | number of time points (MAP2K1) | number of time points (MAP2K2) | number of time points (MAP4K2) | number of time points (MAPK1) | number of time points (MAPK4) | number of time points (MAPKAPK2) | number of time points (MKNK1) | number of time points (NTRK2) |
| --- | --- | --- | --- | --- | --- | --- | --- | --- | --- | --- |
| CCOC(=O)c1c2c3c(cccc3[nH]c1=O)C(=O)c1ccccc1-2 (10 µM) | 0 | 0 | 0 | 0 | 0 | 0 | 0 | 0 | 0 | 0 |
| C=C(F)C(=O)N1CCN(c2nc(OC[C@@H]3CCCN3C)nc3c2CCN(c2cccc4cccc(Cl)c24)C3)C[C@@H]1CC#N (2.5 µM) | 0 | 0 | 0 | 0 | 0 | 0 | 0 | 0 | 0 | 0 |
| O=C(O)CCc1ccc(NCc2cccc(Oc3ccccc3)c2)cc1 (10 µM) | 0 | 0 | 0 | 0 | 0 | 0 | 0 | 0 | 0 | 0 |
| CC1(N)CCN(c2cnc3c(-c4cccc(Cl)c4Cl)[nH]nc3n2)CC1 (2.5 µM) | 0 | 0 | 0 | 0 | 0 | 0 | 0 | 0 | 0 | 0 |
| Fc1c(Br)cccc1Nc1ncnc2cc3c(cc12)OCCO3 (2.5 µM) | 0 | 0 | 0 | 0 | 0 | 0 | 0 | 0 | 2 | 0 |
| O=c1[nH]ccc2cc(OC3CCNCC3)ccc12 (10 µM) | 0 | 0 | 0 | 0 | 0 | 0 | 0 | 0 | 0 | 0 |
| CCN1/C(=C/C(C)=O)Sc2ccc(OC)cc21 (10 µM) | 3 | 2 | 0 | 1 | 1 | 3 | 0 | 0 | 0 | 1 |
| C[C@H]1[C@H](OC(=O)CCC(=O)O)O[C@@H]2O[C@@]3(C)CC[C@H]4[C@H](C)CC[C@@H]1[C@@]24OO3 [Artesunate] (2.5 µM) | 0 | 0 | 0 | 0 | 0 | 0 | 0 | 0 | 2 | 0 |
| O=C(CCCCCn1cc(Nc2ncc(Cl)c(Nc3ccc(Cl)cc3)n2)cn1)NO (2.5 µM) | 0 | 0 | 0 | 0 | 0 | 0 | 0 | 0 | 0 | 0 |
| CC(C)c1cnn2c(NCc3ccccc3-n3cccn3)nc(OC3CCCNC3)nc12 (stereo not given) (2.5 µM) | 1 | 0 | 0 | 0 | 0 | 0 | 0 | 0 | 0 | 0 |
| COC(=O)[C@@]1(C)CC[C@]2(C(=O)O)CC[C@]3(C)C(=CC[C@@H]4[C@@]5(C)C[C@H](O)[C@H](O[C@@H]6OC[C@@H](O[C@@H]7O[C@H](CO)[C@@H](O)[C@H](O)[C@H]7O)[C@H](O)[C@H]6O)[C@@](C)(CO)[C@@H]5CC[C@]43C)[C@@H]2C1 [Esculentoside A] (10 µM) | 0 | 0 | 0 | 0 | 0 | 0 | 0 | 0 | 0 | 0 |
| C[C@H]1Cc2ccccc2N1C(=O)Cc1nc(N2CCOCC2)cc(=O)[nH]1 (2.5 µM) | 0 | 0 | 0 | 0 | 0 | 0 | 0 | 0 | 0 | 0 |
| COc1c(C)c(C(=O)c2ccc(N)c(C(=O)O)c2)n2ccccc12 (10 µM) | 0 | 0 | 0 | 0 | 0 | 0 | 0 | 0 | 0 | 0 |
| COc1nc(-c2ccnc(NC(=O)C3CC3)c2)sc1C(N)=O [GSK-3β inhibitor 2] (10 µM) | 3 | 0 | 0 | 0 | 0 | 0 | 0 | 0 | 0 | 0 |
| O=C(O)c1cc(O)c2c(c1)[C@@H]([C@H]1c3cc(C(=O)O)cc(O)c3C(=O)c3c(O[C@@H]4O[C@H](CO)[C@@H](O)[C@H](O)[C@H]4O)cccc31)c1cccc(O[C@@H]3O[C@H](CO)[C@@H](O)[C@H](O)[C@H]3O)c1C2=O [Sennoside B] (2.5 µM) | 0 | 0 | 0 | 0 | 0 | 0 | 0 | 0 | 0 | 0 |
| CN(CC(=O)N(Cc1ccc(C2CCCCC2)cc1)c1ccc(C(=O)O)c(O)c1)S(=O)(=O)c1c(F)c(F)c(F)c(F)c1F (2.5 µM) | 0 | 0 | 0 | 0 | 0 | 0 | 0 | 0 | 0 | 0 |
| c1ccc(-c2oc3ncnc(NC[C@@H]4CCCO4)c3c2-c2ccccc2)cc1 (2.5 µM) | 0 | 0 | 0 | 0 | 0 | 0 | 0 | 0 | 0 | 0 |
| COc1ccc2c(=O)c(-c3ccccc3)coc2c1 [7-Methoxyisoflavone] (10 µM) | 1 | 0 | 0 | 0 | 0 | 0 | 0 | 0 | 0 | 0 |

| Compound | number of time points (LMTK2) | number of time points (LYN) | number of time points (MAP2K1) | number of time points (MAP2K2) | number of time points (MAP4K2) | number of time points (MAPK1) | number of time points (MAPK4) | number of time points (MAPKAPK2) | number of time points (MKNK1) | number of time points (NTRK2) |
| --- | --- | --- | --- | --- | --- | --- | --- | --- | --- | --- |
| COc1ccc(CN2C3CC2CN(c2ccc(-c4cc(OCC(C)(C)O)cn5ncc(C#N)c45)cn2)C3)cn1 [Selpercatinib] (10 µM) | 0 | 0 | 0 | 0 | 0 | 0 | 0 | 0 | 0 | 0 |
| C=CC(=O)Nc1cccc(-n2c(=O)cc(C)c3cnc(Nc4ccc(OCCN(C)C)cc4OC)nc32)c1 (10 µM) | 0 | 0 | 0 | 0 | 0 | 0 | 0 | 0 | 0 | 0 |
| CC(=O)Nc1nc(C)c(-c2nc(N3CCCC(O)C3)no2)s1 (stereo not given) (10 µM) | 0 | 0 | 0 | 0 | 0 | 0 | 0 | 0 | 0 | 0 |
| CC(C)N(C)c1nc2cc(C(=O)O)ccc2nc1-c1ccc(F)cc1 (10 µM) | 0 | 0 | 0 | 0 | 0 | 0 | 0 | 0 | 0 | 0 |
| COc1cc(C(C)=O)cc(OC)c1O [Acetosyringone] (10 µM) | 0 | 0 | 0 | 0 | 0 | 0 | 0 | 0 | 0 | 0 |
| CCN(C)C(=O)c1ccc2c(C(=Nc3ccc(CN4CCCCC4)cc3)c3ccccc3)c(O)[nH]c2c1 (2.5 µM) | 0 | 0 | 0 | 0 | 0 | 0 | 0 | 0 | 0 | 0 |
| CC[C@@H]1C(=O)N(C)c2cnc(Nc3ccc(C(=O)N[C@H]4CC[C@H](N5CCN(CC6CC6)CC5)CC4)cc3OC)nc2N1C(C)C [Volasertib] (2.5 µM) | 0 | 0 | 0 | 0 | 0 | 0 | 0 | 0 | 0 | 0 |
| CC(C)c1cc(/C=C(\C#N)C(N)=O)cc(C(C)C)c1O (10 µM) | 0 | 0 | 0 | 0 | 0 | 0 | 0 | 0 | 0 | 0 |
| C[C@@H]1O[C@@H](OC[C@H]2O[C@@H](Oc3cc(O)c4c(c3)O[C@H](c3ccc(O)cc3)CC4=O)[C@H](O)[C@@H](O)[C@@H]2O)[C@H](O)[C@H](O)[C@H]1O [Narirutin] (10 µM) | 0 | 0 | 0 | 0 | 0 | 0 | 0 | 0 | 0 | 0 |
| O=c1nc(N2CCOCC2)oc2c(-c3cccc4c3sc3ccccc34)cccc12 (10 µM) | 1 | 0 | 0 | 0 | 0 | 0 | 0 | 0 | 0 | 0 |
| CC1=C(CC(=O)O)c2cc(F)ccc2/C1=C\c1ccc(C(C)C)cc1 (10 µM) | 0 | 0 | 0 | 0 | 0 | 0 | 0 | 0 | 0 | 0 |
| COC1(C(=O)N[C@@H](C)c2ccc(-n3cc(F)cn3)nc2)CCC(c2nc(C)cc(Nc3cc(C)[nH]n3)n2)CC1 (stereo partly drawn) [trans-Pralsetinib] (2.5 µM) | 0 | 0 | 0 | 0 | 0 | 0 | 0 | 0 | 0 | 0 |
| Cc1ccc(-c2ncn(-c3ccc(Nc4nccc(-c5cccc(N6CCOCC6)c5)n4)cc3)n2)cn1 (10 µM) | 0 | 0 | 0 | 0 | 0 | 0 | 0 | 0 | 0 | 0 |
| O=C(NOCCO)c1ccc2cncn2c1Nc1ccc(I)cc1F (10 µM) | 0 | 0 | 0 | 0 | 0 | 0 | 0 | 0 | 0 | 0 |
| O=C1NC(=O)/C(=C/c2ccc(-c3ccc(F)cc3O)o2)S1 (10 µM) | 0 | 0 | 0 | 0 | 0 | 0 | 0 | 0 | 0 | 0 |
| O=C(Nc1cccc(-c2nncn2C2CC2)c1)c1cc(-n2cnc(C3CC3)c2)ccn1 (10 µM) | 0 | 0 | 0 | 0 | 0 | 0 | 0 | 0 | 0 | 0 |
| C=CC(=O)N1CCC(Oc2cc3c(Nc4ccc(Cl)c(Cl)c4F)ncnc3cc2OC)CC1 [Poziotinib] (2.5 µM) | 0 | 0 | 0 | 0 | 0 | 0 | 0 | 0 | 0 | 0 |
| CCCCOc1ccc(CC/C=C2\SC(=O)N(CCN)C2=O)cc1 [K145 (hydrochloride)] (2.5 µM) | 0 | 0 | 0 | 0 | 0 | 0 | 0 | 0 | 0 | 0 |

Entries listed so far that contain a furan ring, fused or not:

| Compound | number of time points (LMTK2) | number of time points (LYN) | number of time points (MAP2K1) | number of time points (MAP2K2) | number of time points (MAP4K2) | number of time points (MAPK1) | number of time points (MAPK4) | number of time points (MAPKAPK2) | number of time points (MKNK1) | number of time points (NTRK2) |
| --- | --- | --- | --- | --- | --- | --- | --- | --- | --- | --- |
| c1ccc(-c2oc3ncnc(NC[C@@H]4CCCO4)c3c2-c2ccccc2)cc1 (2.5 µM) | 0 | 0 | 0 | 0 | 0 | 0 | 0 | 0 | 0 | 0 |
| O=C1NC(=O)/C(=C/c2ccc(-c3ccc(F)cc3O)o2)S1 (10 µM) | 0 | 0 | 0 | 0 | 0 | 0 | 0 | 0 | 0 | 0 |
